The record followed here is paper PMC8670706.

These are yes or no findings as the source states them, for the method shown. In cells and extracts the contact can be indirect. Binding calls can cover weak binding; strength is not graded here. Tags and fused reporters may be left off the sequences shown.

For this test, the target named is T1, Myc-tagged SmHDAC8 (S. mansoni) (UniProt A5H660).
T1 sequence: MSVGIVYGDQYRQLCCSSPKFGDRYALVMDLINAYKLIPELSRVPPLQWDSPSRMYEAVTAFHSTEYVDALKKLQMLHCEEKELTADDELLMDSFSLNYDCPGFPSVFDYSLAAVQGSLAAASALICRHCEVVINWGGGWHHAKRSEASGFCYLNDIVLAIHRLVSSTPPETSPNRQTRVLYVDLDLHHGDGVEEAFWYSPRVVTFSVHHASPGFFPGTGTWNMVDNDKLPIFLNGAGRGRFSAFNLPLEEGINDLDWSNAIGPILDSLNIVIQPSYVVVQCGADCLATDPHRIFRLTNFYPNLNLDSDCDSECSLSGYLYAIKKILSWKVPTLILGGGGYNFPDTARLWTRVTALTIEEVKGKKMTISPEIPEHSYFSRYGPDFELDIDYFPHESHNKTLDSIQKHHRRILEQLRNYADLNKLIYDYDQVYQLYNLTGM
Put plainly: co-IP; Myc- and HA-tagged proteins co-expressed from cRNA in X. laevis oocytes; lysis in 50 mM HEPES pH 7.4, 500 mM NaCl, 0.05% SDS, 0.5% Triton X100, 5 mM MgCl2; IP with anti-Myc or anti-HA, protein A-Sepharose, 4°C; Western blot.
Turning to “HA-tagged SmRho1.1 1-88 aa fragment (S. mansoni) (domain or fragment)”, the binding result is “no binding”.
In the case of “HA-tagged SmRho1.1 1-143 aa fragment (S. mansoni) (domain or fragment)” it was “no binding”; in that of HA-tagged SmRho1.1 (S. mansoni), “binds”.
The result for HA-tagged SmRho1.1 E33K (S. mansoni) reads “binds”; that for HA-tagged SmRho1.2 (S. mansoni), “no binding”; that for HA-tagged SmRho1.2 K33E (S. mansoni), “no binding”.
